Results as given in PubChem BioAssay AID1347423 (Functional Genomics Laboratory (NCATS/FGL), 2020).
Screen size: about 52,000 sequences; about 210 (0.4%) were called active.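 The calls were made as follows: active = gene whose silencing raises cell survival under the drug, median off-target-corrected z-score across its silencing RNAs 2 or more; inactive = the rest.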 Some of the results follow.

experiment: Resistance to Poly (ADP-Ribose) Polymerase inhibitor: Gene Identification via Genome-wide siRNA Screen; conditions: mouse BRCA2 R2336H ES cells, olaparib, CellTiter-Glo viability; active compounds read high
Outline: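 Mouse BRCA2 R2336H ES cells were reverse-transfected with siRNA (20 nM final), treated at 48 h with 500 nM olaparib, and read by CellTiter-Glo after 72 h. Scores: MAD-based z per siRNA, median per gene, seed off-target correction.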

| Sequence | z-score |
| --- | --- |
| GGAAAGCAAUACAAUCAAATT against 1110007M04Rik | inactive: 0.777 |
| CCUUACCAAUGUUCAUUUATT against C130057D23Rik | inactive: 0.972 |
| GGCUUUUGAAGCCAUCAAGTT against Mrp63 | inactive: 0.863 |
| GCAAAGGAACGAGUUUGAGTT against 1110017I16Rik | inactive: 0.166 |
| GCGGUGUGCUGGAUAAUUCTT against Vit | inactive: -1.88 |
| GCCAUUUGUUAGCAGUCACTT against BC018101 | inactive: 0.0704 |
| GGAACCAACAGAGAAAACUTT against Hr | inactive: 0.231 |
| CUUCCUGAGGAGAAUGUAUTT against Krt2-10 | inactive: -0.883 |
| GCUAACACUGCGCUUGGAATT against 1700067K01Rik | inactive: -1.66 |
| GGAGAGGUAAAAAUGUUGUTT against Dnaja1 | inactive: 0.532 |
| GCUCGUACACAAUGAACACTT against Jam2 | inactive: -1.27 |
| GCUGUACAAUAACAGUAUGTT against Mir16 | inactive: -0.538 |
| GCUAUGUCUCAACUGUUCATT against Trf3 | inactive: -1.01 |
| GCGGAAUUGGAAAAUGCCGTT against Hbs1l | inactive: 1.42 |
| GGAACUCAGAGGUGAAAGCTT against Olfr70 | inactive: 0.267 |
| GGCAUGAUCAGCACAUCACTT against Rpap1 | inactive: -0.292 |
| GCACAAGUAUUCUCAAAUGTT against Adcy8 | inactive: 0.471 |
| CCAAUAGCUUCCAGAAACATT against 1200009I06Rik | inactive: -1.8 |
| GCUUGUAUGAGAUUACCUATT against Ttc1 | inactive: 0.348 |
| GCUAGAAAGGACUUCGUGGTT against 4732472I07Rik | inactive: 0.972 |
| CCCGGUACUAUAAUGCCAATT against Zmynd19 | inactive: 0.657 |
| GGACAAAUUUCUUUUCCUUTT against Atp10a | inactive: 0.636 |

An excerpt of these results, as labelled records:
GGCAUGAUCAGCACAUCACTT against Rpap1
  z-score: inactive: -0.292
GCACAAGUAUUCUCAAAUGTT against Adcy8
  z-score: inactive: 0.471
CCAAUAGCUUCCAGAAACATT against 1200009I06Rik
  z-score: inactive: -1.8
GCUUGUAUGAGAUUACCUATT against Ttc1
  z-score: inactive: 0.348

Copied from the list:
GCUAUGUCUCAACUGUUCATT against Trf3 | z-score: inactive: -1.01
GGAGAGGUAAAAAUGUUGUTT against Dnaja1 | z-score: inactive: 0.532

(next part)

| Sequence | z-score |
| --- | --- |
| GGCCAGAUUACUCACCUAUTT against Birc3 | inactive: 0.074 |
| GGCUAUGCUUCUUUCCUUUTT against Cfhl1 | inactive: 0.305 |
| GGAGACCUUUCUGAAAGUCTT against A130038L21Rik | inactive: -0.341 |
| GGCAUUCCUUAACUACUACTT against Lbp | inactive: -1.41 |
| GGAUGUUUGGACAAUCUAUTT against Itga4 | inactive: -0.47 |
| CGUCUCCAUAGAUCUAGAUTT against Creb3 | inactive: -0.154 |
| GCUUCAACCCGGUCACACUTT against Kif6 | inactive: -0.376 |
| GGCAUCUGAACAGGCAGACTT against Acvrl1 | inactive: 1.73 |
| GUGUUCAGUAUGCUGGCAGTT against Klra6 | inactive: 0.684 |
| GCAUCGAAAAUCUUUCCAATT against Fibcd1 | inactive: -0.194 |
| CCCAGUAACUAGUUUGUAATT against A630005A06Rik | inactive: -0.204 |
| UCUACCAUCUUUGCCUACCTT against Olfr1182 | inactive: -0.556 |
| GCUAGAGUACAGCAAGCUGTT against 2810401C16Rik | inactive: -0.958 |
| GGCAAAAGCAGACAUUGAATT against 2610009I02Rik | inactive: 0.436 |
| GGUGUCAUCCUUUACAGUUTT against Ate1 | inactive: -1.18 |
| GGGACAUUAUGCUUAUGACTT against Sfrs7 | inactive: -1.46 |
| GGUGCUUCACGUCGAUUACTT against Tdrd6 | inactive: -0.449 |
| GGGACUGGAACAAUAGAGGTT against BC030500 | inactive: 0.0679 |
| GGGAUAAAACUCAAUAGUATT against BC043934 | inactive: 0.575 |
| GGCUAUUAGAAGGAAAACUTT against Olfr8 | inactive: -0.31 |
| CGCACGAGAAGACCUCUUUTT against LOC432552 | inactive: 0.117 |
| GGCAAAACUGUCGAGGUCCTT against Uck1 | inactive: 0.0586 |

| Sequence | z-score |
| --- | --- |
| GGAACAGAAACUAUUUAGATT against Zfp189 | inactive: 0.235 |
| CCUCUUCUUGUUUCAAGGGTT against 9430028L06Rik | inactive: 0.164 |
| GCUACAUUUCACGACUGCGTT against Dpm3 | inactive: -0.596 |
| GGAUAAAAGUCGAAAAACATT against Mcpt1 | inactive: -0.387 |
| GGAGUGAAGGCCAGCUGAATT against Son | inactive: -3.66 |
| GCUGCGUGUGAUUGAACCCTT against Coro2b | inactive: -0.143 |
| GGAUGGUGACAUCAUUCCGTT against 1300017K07Rik | inactive: -0.749 |
| CCACCAGAAUCCUAACACATT against Nucb2 | inactive: 0.805 |
| GCCUUUACCAGAAUUAUAGTT against Itgb3 | inactive: -0.353 |
| CCACAUCUGAGACUAUUCATT against Crhr1 | inactive: -1.05 |
| GGAUAUGUUUGGUUAUUUCTT against Acbd4 | inactive: 0.676 |
| GGACAUUGACGCAUAGGGATT against Arsa | inactive: 0.316 |
| GGCUGUGGAUAAAGCUAAUTT against AI838661 | inactive: 2.07 |
| GGAUGUGCAAGGAAUCUCATT against Spint1 | inactive: -1.4 |
| GCAUUGUGCUGAUGUGCGGTT against BC002199 | inactive: 0.612 |
| GCAAUUCCAAGAAAGUGUGTT against Skb1 | inactive: -2.14 |
| AAUGCUCAGAAAGAAUAACTT against Sprr2e | inactive: -0.23 |
| GGUUAAGUCCCUAGGACAUTT against Blzf1 | inactive: -0.821 |
| GGAAGAAGCUGAGGAAAGCTT against 4921536I21Rik | inactive: -1.67 |
| GCUUAUGGGUGGCUUUAAGTT against 2310008H09Rik | inactive: 0.292 |
| GAAUGUUCACUGUUGGAUUTT against Olfr622 | inactive: -0.544 |
| AGGCAUUAUACCCAUCAGGTT against Mtvr2 | inactive: 0.825 |
